In all, about 410,000 compounds went through this assay and about 18,000 (4.4%) were called active. The shares of active, inactive and inconclusive entries below differ from those in the screen. Cut-off read from the data, not from the text of the source: active = activity change below about -60%; inconclusive = no clear call, values can overlap the other calls; inactive = above about -39%.
Experiment: qHTS Assay for inhibitors of the human cytomegalovirus (HCMV)
Details: HFF cells, HCMV-luciferase reporter, 72 h; at 57.5 µM; hits give low values
In short: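 Cell-based, HFFs, 1000 cells/well, 16 h 37C; cpds in DMSO + HCMV-luc, MOI 1 PFU/cell; 72 h 37C; OneGlo luminescence after 5 min RT; norm. to buffer vs Salinomycin 10uM.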
For `CC(C)(C)c1nc(SCC(=O)Nc2ccc3c(c2)OCCO3)c2ccccc2n1`, the activity change, negative = inhibition was inconclusive: -54.6%.
For `COc1cccc(NC(=O)CN(C)CC(=O)Nc2ccc3c(c2)CCC3)c1`, the activity change, negative = inhibition was inconclusive: -52.6%.
With `C=C1CCCC2OC(CC3=CC4/C(C)=C/CC(C)CC(/C=C(\C)C(O)C5CC(O)C(O)C(CCC(O)/C=C/C(C)=C/CCC6=NCCC(C3)C64C)O5)OC(=O)CC3OC(C(O)C1)C(O)C3O)CC(O)C2O` (stereo not drawn) the activity change, negative = inhibition was active: -78.5%.
With `Nc1cccc2c(=O)c3ccccc3[nH]c12` the activity change, negative = inhibition was inactive: -1.31%.
For `CC(=O)Nc1cccc(NC(=O)Cc2csc(COc3cccc(C)c3)n2)c1`, the activity change, negative = inhibition was inactive: 1.23%.
For `COCCNC(=O)C1(C)CCCN(C(=O)c2ccc(-c3ccccc3)cc2)C1` (stereo not drawn), the activity change, negative = inhibition was inconclusive: -41.1%.
In the case of `N#Cc1cccc(NC(=O)COC(=O)Cn2nc(-c3ccccc3)oc2=O)c1`, the activity change, negative = inhibition is reported as active: -65.4%.
In the case of `C=CCn1c(SCC(=O)NC2CCS(=O)(=O)C2)nnc1-c1cc2c(s1)CCC(CC)C2` (stereo not drawn), the activity change, negative = inhibition is reported as inconclusive: -52%.
For `Cc1cc(C)c(-c2csc(Cc3nc(-c4cc5ccccc5oc4=O)cs3)n2)cc1C`, the activity change, negative = inhibition was active: -65.4%.
For `CC(=O)NC(c1ccc(F)c(F)c1)c1nc(-c2cnn(C)c2)cs1` (stereo not drawn), the activity change, negative = inhibition was inactive: 6.92%.
In the case of `O=C1C=CC(=O)N1`, the activity change, negative = inhibition is reported as inconclusive: -56.7%.
In the case of `CC(=O)N1c2ccc(S(=O)(=O)N3CCCC(C(=O)N4CCCC(C)C4)C3)cc2CC1C` (stereo not drawn), the activity change, negative = inhibition is reported as inconclusive: -53.3%.
In the case of `CC(C)=NNc1nc2c(c(=O)[nH]c(=O)n2C)n1CCc1ccccc1`, the activity change, negative = inhibition is reported as inconclusive: -45.6%.
In the case of `Cc1ccc(Cl)cc1NC(=S)N(CCCN1CCOCC1)Cc1ccco1`, the activity change, negative = inhibition is reported as inconclusive: -54.6%.
For `Cc1occc1C(=O)NC1CCCN(Cc2ccc(CC(C)C)cc2)C1` (stereo not drawn), the activity change, negative = inhibition was active: -69.3%.
For `COc1ccc(NS(=O)(=O)c2cccc(C(=O)N/N=C(\C)c3ccncc3)c2)cc1`, the activity change, negative = inhibition was inconclusive: -40.9%.
For `Cc1ccc(C)c(CS(=O)(=O)c2cn(CC(=O)N3CCC(C)CC3)c3ccccc23)c1`, the activity change, negative = inhibition was inconclusive: -50.8%.
With `Oc1ccc2n[nH]nc2c1` the activity change, negative = inhibition was inconclusive: -41.7%.
In the case of `CCCN(CC(=O)Nc1ccc(C(N)=O)cc1)CC(=O)Nc1ccc(Cl)cc1Cl`, the activity change, negative = inhibition is reported as inactive: 9.8%.
With `CCc1nc(SCC(=O)Nc2ccc3c(c2)OCCO3)c2oc3ccccc3c2n1` the activity change, negative = inhibition was inconclusive: -51.2%.
With `C[C@@H]1CN([C@@H](C)CO)C(=O)c2c(c3ccccc3n2C)-c2ccccc2CO[C@H]1CN(C)S(=O)(=O)c1ccc(C#N)cc1` the activity change, negative = inhibition was inconclusive: -47.1%.
With `O=C(Nc1nccs1)c1cccc(NC(=O)C2CC2)c1` the activity change, negative = inhibition was inactive: -24.3%.
For `COc1ccc2c(c1)C(c1ccc(C)o1)=NNC(c1ccccc1)=N2`, the activity change, negative = inhibition was inconclusive: -56.3%.
With `O=C(NCCC1CCCCN1S(=O)(=O)c1ccc(Cl)cc1)C(=O)NCc1ccco1` (stereo not drawn) the activity change, negative = inhibition was inconclusive: -45.6%.
With `O=C(NCC1CCCO1)c1ccc(CSCc2cccc(F)c2)o1` (stereo not drawn) the activity change, negative = inhibition was inconclusive: -40.6%.
For `COc1ccccc1OCCn1cc(/C=N/NC(N)=S)c2ccccc21`, the activity change, negative = inhibition was inconclusive: -51.5%.
For `COc1cc(C)ccc1S(=O)(=O)NC(=O)C1(C)CCN1C(=O)c1ccc(C2CCCCC2)cc1` (stereo not drawn), the activity change, negative = inhibition was inactive: -1.45%.
With `O=C(c1ccc([N+](=O)[O-])s1)N1CCN(c2ccccc2)CC1` the activity change, negative = inhibition was active: -96.5%.
For `COc1ccc(C(=O)Nc2cc(C(F)(F)F)ccc2Cl)cc1OC`, the activity change, negative = inhibition was inconclusive: -41.4%.
For `CCOCCCNC(=O)c1ccc2c(=O)n(Cc3ccc(OC)cc3)c(=O)[nH]c2c1`, the activity change, negative = inhibition was inconclusive: -44.8%.
For `COC(=O)c1c(NC(=O)C(=O)NCCCN2CCOCC2)sc2c1CC(C)(C)OC2`, the activity change, negative = inhibition was inconclusive: 0%.
For `COc1cc(/C=C/C(=O)O)cc(S(=O)(=O)Nc2ccc(S(=O)(=O)N3CCCCC3)cc2)c1OC`, the activity change, negative = inhibition was inactive: -25.3%.
For `O=c1[nH]c2c(Br)cnc([N+](=O)[O-])c2[nH]1`, the activity change, negative = inhibition was inconclusive: 0%.
In the case of `O=C(Nc1ccc(N2CCCCCC2)cc1)c1cccc(S(=O)(=O)N2CCOCC2)c1`, the activity change, negative = inhibition is reported as active: -73.7%.
For `CS(=O)(=O)c1ccc2nc(NC(=O)CN3CCC(Cc4ccccc4)CC3)sc2c1`, the activity change, negative = inhibition was active: -84.7%.
For `CCOc1ccc(C2=C(C(=O)CC)Sc3nncn3N2C(=O)CC)cc1`, the activity change, negative = inhibition was active: -101%.
With `Cc1ccc(NC(=O)C(=O)NCCCN2CCCC2=O)cc1` the activity change, negative = inhibition was inactive: 63.2%.
For `O=C(N/N=C\c1ccc([N+](=O)[O-])o1)C1COc2ccccc2O1` (stereo not drawn), the activity change, negative = inhibition was active: -84.2%.
For `CCOc1ccccc1OCC(=O)Nc1cccc(S(=O)(=O)NC2=NCCCCC2)c1`, the activity change, negative = inhibition was inactive: 5.37%.
With `CCCc1nc2c(ccc3ccccc32)cc1CC` the activity change, negative = inhibition was inconclusive: -55.2%.
In the case of `COc1cc(C(=O)N2CCC(N3CCN(C)CC3)CC2)ccc1Nc1ncc2c(n1)N(C)c1ccccc1C(=O)N2C`, the activity change, negative = inhibition is reported as active: -72.7%.
With `CCN1CCN(S(=O)(=O)c2ccc(Cl)c(C(=O)N(C)CCOc3ccc(Cl)cc3)c2)CC1` the activity change, negative = inhibition was inconclusive: -55.5%.
With `COc1ccc(CCNC(=O)Cn2nnc(-c3ccc(OC)c(OC)c3)n2)cc1OC` the activity change, negative = inhibition was inactive: 60.4%.
With `Cn1c(CSCc2ccc(F)cc2)nnc1SCC(=O)N1CCN(c2ccccc2)CC1` the activity change, negative = inhibition was active: -68.5%.
For `Cc1ccccc1Cc1c(C)nc2c(C(=O)N3CCN(Cc4ccc5c(c4)OCO5)CC3)cnn2c1C`, the activity change, negative = inhibition was inconclusive: -54.2%.
For `COc1cccc(CNC(=O)c2ccc3c(c2)N(C)CCS3)c1OC`, the activity change, negative = inhibition was inconclusive: -41.1%.
With `O=C(OCC(=O)N1CCN(C(=O)COC(=O)c2ccc(O)cc2O)CC1)c1ccc(O)cc1O` the activity change, negative = inhibition was inactive: -19%.
In the case of `O=C1/C(=C/c2ccncc2)SC(=S)N1C1CCCCC1`, the activity change, negative = inhibition is reported as inconclusive: -52.3%.
For `CCOC(=O)Cc1ccc(NC(=O)N(C(C)C)C2CCN(C(C)=O)CC2)cc1`, the activity change, negative = inhibition was inactive: -7.26%.
With `Cc1cc(C)cc(N=C(NO)c2cccc([N+](=O)[O-])c2)c1` the activity change, negative = inhibition was inconclusive: -53.2%.
For `O=C1N[C@@H](Cc2ccccc2)COC(=O)[C@@H](Cc2ccc(F)cc2)C/C=C\C[C@@H]1CC(=O)N(CCO)Cc1ccccc1`, the activity change, negative = inhibition was active: -96.5%.
For `Cc1nc(CN2CCN(C(=O)NC3(c4ccccc4)CC3)CC2)cs1`, the activity change, negative = inhibition was active: -77%.
For `COc1ccc(NC(=O)N(C)C[C@H]2Oc3c(NC(=O)Cc4ccccc4)cccc3C(=O)N([C@H](C)CO)C[C@@H]2C)cc1`, the activity change, negative = inhibition was inactive: 21.6%.
For `COc1ccc(C2CC(c3ccccc3)=NN2C(=O)COC(=O)c2cnc(Cl)c(Cl)c2)cc1` (stereo not drawn), the activity change, negative = inhibition was inconclusive: -47.3%.
In the case of `CCC(C)NC(=O)CSc1ccc(S(=O)(=O)N2CCN(Cc3ccccc3)CC2)cn1` (stereo not drawn), the activity change, negative = inhibition is reported as inconclusive: 0%.
With `CSc1nc2ccccc2c(=O)n1-c1cccnc1` the activity change, negative = inhibition was inconclusive: -49.5%.
With `O=C(CCCn1c(=O)[nH]c2ccsc2c1=O)N1CCN(c2cccc(C(F)(F)F)c2)CC1` the activity change, negative = inhibition was active: -105%.
With `COc1ccc(C(=O)N2CCN(S(=O)(=O)c3cc(Cl)ccc3OC)CC2)cc1` the activity change, negative = inhibition was inconclusive: -43.9%.
For `O=[N+]([O-])c1ccc(/C=N/Nc2ncccc2[N+](=O)[O-])s1`, the activity change, negative = inhibition was inconclusive: -46.9%.
In the case of `Clc1ccccc1CSc1cnnc2ccccc12`, the activity change, negative = inhibition is reported as inactive: 11%.
With `CC(=O)N1c2c(cc(Br)cc2S(=O)(=O)Nc2ccc(OC(F)(F)F)cc2)CC1C` (stereo not drawn) the activity change, negative = inhibition was active: -82.3%.
With `COc1ccc(/C=C2/SC(=S)N(CCCC(=O)Nc3ccc(O)cc3)C2=O)cc1` the activity change, negative = inhibition was active: -99.6%.
With `COc1ccc(NC(=O)c2cccc(S(=O)(=O)N3CCCCC3)c2)c(OC)c1` the activity change, negative = inhibition was active: -69%.
With `COc1ccc(-c2csc(NC(=O)c3ccc(S(=O)(=O)N4CCc5ccccc5C4)cc3)n2)c(OC)c1` the activity change, negative = inhibition was inconclusive: -52.3%.
With `CCOC(=O)N/N=C/c1ccccc1OCc1ccc(Cl)cc1` the activity change, negative = inhibition was inconclusive: -51.8%.
For `CCOC(=O)C(C(=O)OCC)c1cc(Br)c2noc3c2c1C(=O)c1ccccc1-3`, the activity change, negative = inhibition was active: -106%.
For `Cn1nnnc1SCC(=O)Nc1ccc(S(=O)(=O)N2CCOCC2)cc1`, the activity change, negative = inhibition was inconclusive: -41.4%.
For `O=C(CCCSc1ccccc1)Nc1nc(-c2ccccn2)cs1`, the activity change, negative = inhibition was inactive: -0.704%.
In the case of `O=S(=O)(Oc1ccccc1-c1ccccc1)c1ccccc1`, the activity change, negative = inhibition is reported as inconclusive: -50.4%.
For `COc1cccc(CNC(=O)Cn2nc3c(cc2=O)CCCC3)c1OC`, the activity change, negative = inhibition was inconclusive: -44.9%.
For `Cn1cc([N+](=O)[O-])c(C(=O)Nc2ccc(-c3nc4ccccc4[nH]3)cc2)n1`, the activity change, negative = inhibition was active: -72.9%.
In the case of `COc1ccc2ccccc2c1/C=N\NC(=O)c1cccnc1`, the activity change, negative = inhibition is reported as inactive: 18.2%.
In the case of `Nc1cc(=O)nc(SCC(=O)Nc2ccccc2Cl)n1-c1ccccc1`, the activity change, negative = inhibition is reported as inconclusive: -42.4%.
With `CCOc1ccc(CNC(=O)Cn2cc3c(n2)-c2c(oc(C(=O)N4CCCC4)c2C)CC3)cc1` the activity change, negative = inhibition was inconclusive: -45%.
For `COc1ccc(OC)c(/C=C/C(=O)Nc2cccc(S(=O)(=O)N3CCCC3)c2)c1`, the activity change, negative = inhibition was inconclusive: -50.9%.
In the case of `CN1C2=CC=CC=CC2=[N+](C)C12C=CC(=[N+]([O-])[O-])C=C2[N+](=O)[O-]` (stereo not drawn), the activity change, negative = inhibition is reported as inconclusive: -44.2%.
With `CN(C)C(=O)C12CCC(C)(c3nc4ccccc4nc31)C2(C)C` (stereo not drawn) the activity change, negative = inhibition was inactive: 22.7%.
In the case of `c1ccc(CSc2nc3ncncc3[nH]2)cc1`, the activity change, negative = inhibition is reported as inconclusive: -46%.
In the case of `N#Cc1ccsc1NC(=O)CSc1nnc(-c2ccccc2)o1`, the activity change, negative = inhibition is reported as inactive: 142%.
With `Cc1ccc2c(Cl)c(C)c(N3CCCC3)nc2n1` the activity change, negative = inhibition was inconclusive: -52.7%.
In the case of `COc1ccc(NC(=O)CCOc2ccccc2F)cc1S(=O)(=O)N1CCCCC1`, the activity change, negative = inhibition is reported as inactive: -5.62%.
With `CCOC(=O)C1(C)CCN1C(=O)c1oc2ccccc2c1C` (stereo not drawn) the activity change, negative = inhibition was inconclusive: -52.3%.
In the case of `CCOc1ccc(Nc2ccc(S(=O)(=O)N3CCN(C)CC3)cc2[N+](=O)[O-])cc1OCC`, the activity change, negative = inhibition is reported as inactive: -4.65%.
% is set by controls: 0 for no effect and ±100 for the full control effect.
